Data taken from the supplement of paper PMC12889115.
The other results are listed elsewhere or left out. These are raw signals, not scaled to a control.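 First-pass screen: polymyxin B was added at a level that permeabilizes the Salmonella outer membrane while sparing the inner membrane. DMSO wells, with and without polymyxin B, defined maximum growth. Because plates differed from one another, each plate's data were ranked separately and the compounds with the lowest OD600 were carried forward as hits.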

System: Salmonella enterica serovar Typhimurium SL1344
Test: bacterial growth OD600 after 18 h with compound and polymyxin B; higher = more bacterial growth (less inhibition)
Conditions: 50 µM, Mueller-Hinton broth

Row | Structure (SMILES) | bacterial growth OD600 (polymyxin B 0.75 µg/mL) | bacterial growth OD600 (polymyxin B 1 µg/mL)
1 | CCOC(=O)C1(CC2CCCCO2)CCN(S(=O)(=O)c2cc(F)c(F)cc2F)CC1 (stereo unspecified) | 0.593 | 
2 | O=C(NCCCC1CCCC1)C1CCCN(C2CCN(C(=O)C3CC3)CC2)C1 (stereo unspecified) | 0.562 | 
3 | O=C(c1cccnc1)N1CCC(Oc2ccccc2C(=O)N2CCCCCC2)CC1 |  | 1.24
4 | COc1cccc(-c2nc3ccc(C(=O)N(C)CCC4CCCCO4)cc3o2)c1 (stereo unspecified) |  | 0.932
5 | Cc1csc(C(C)NC(=O)c2cc(NS(=O)(=O)N(C)C)cc3nc(CC(C)C)n(C)c23)n1 (stereo unspecified) | 0.842 | 
6 | Cc1ccc(CNC2CCCc3nc(N4CCC(CO)CC4)ncc32)s1 (stereo unspecified) | 0.822 | 
7 | O=C(N1CCN(CCO)CC1)C1(N2CCCCC2)Cc2ccccc2C1 |  | 1.05
8 | Cc1csc(C(C)N(C)C(=O)CC2(c3ccc(-c4ccccc4)cc3)CC(=O)N(C)C2=O)n1 (stereo unspecified) | 0.011 | 
9 | CCS(=O)(=O)N1C[C@H]2OC(=O)N(CCc3cccc(Cl)c3)[C@H]2C1 |  | 1
10 | COc1ccccc1-c1ccnc(-n2ncc(C(=O)NC3CCCC3)c2C2CC2)n1 | 0.759 | 
11 | Cc1c(C(=O)NCC(C)C)sc2ncnc(NC[C@H]3C[C@@H]4C=C[C@H]3C4)c12 | 0.01 | 
12 | CC(C)N(CCO)Cc1cn(Cc2ccccc2)nc1-c1cc2ccccc2o1 |  | 0.831
13 | COC(=O)c1ccc(-c2nc(CN(CCO)Cc3cccs3)c(C)o2)cc1 |  | 0.798
14 | COc1cccc(CN2CCN(Cc3cc4ccccc4o3)CC2CCO)c1 (stereo unspecified) |  | 0.965
15 | CCN(CCO)C(=O)CCC1(Cc2ccc(OC)c3ccccc23)CCC(=O)N1 (stereo unspecified) | 1.03 | 
16 | O=C(C1CC(Cc2cccc(Cl)c2)=NO1)N1CCN(c2ncc3ccccc3n2)CC1 (stereo unspecified) | 0.905 | 

Reformatted with each value named: entries from further up.
Cc1c(C(=O)NCC(C)C)sc2ncnc(NC[C@H]3C[C@@H]4C=C[C@H]3C4)c12
  bacterial growth OD600 (polymyxin B 0.75 µg/mL): 0.01
CC(C)N(CCO)Cc1cn(Cc2ccccc2)nc1-c1cc2ccccc2o1
  bacterial growth OD600 (polymyxin B 1 µg/mL): 0.831

Following part

Row | Structure (SMILES) | bacterial growth OD600 (polymyxin B 0.75 µg/mL) | bacterial growth OD600 (polymyxin B 1 µg/mL)
17 | C=CCS(=O)(=O)N1CCC(C2CCN(CCc3ccccc3)C2)CC1 (stereo unspecified) | 0.727 | 
18 | CCC1CN(Cc2ccc3c(c2)CCO3)Cc2cc(OC)ccc2O1 (stereo unspecified) | 0.751 | 
19 | Cc1cc(C(=O)N2CCc3[nH]nc(-c4ccc(Cl)cc4)c3C2)n(C)n1 | 0.494 | 
20 | COC1CCCN(C(=O)c2cc(COc3ccc4c(c3)CCCC4)on2)C1 (stereo unspecified) |  | 0.952
21 | Cc1ccccc1CCC1CCCN(C(=O)c2cc(=O)n(C)c(=O)n2C)C1 (stereo unspecified) | 0.682 | 
22 | COc1ccc(-c2noc(CN3CCCC(c4ccccc4)C3)n2)c(OC)c1OC (stereo unspecified) |  | 1.12
23 | O=C1CCC(CCNCCOc2ccc(F)cc2)N1Cc1nc(-c2ccccc2)cs1 (stereo unspecified) | 0.815 | 
24 | Cc1ccoc1C(=O)N1CCC(C2CCN(c3ncccn3)CC2)C1 (stereo unspecified) | 0.842 | 
25 | C=CCC(=O)N1CCc2onc(-c3ccc(F)c(F)c3)c2C1 | 0.918 | 
26 | OCC1(Cc2ccccc2)CCCN(Cc2cnn(-c3ccccc3Cl)c2)C1 (stereo unspecified) |  | 0.847
27 | Cc1csc(SCC(=O)N2CCc3c(cnc(C)c3CNC(=O)c3ccccc3F)C2)n1 | 0.82 | 
28 | O=C(NCC1(O)CCCCC1)c1coc(CN2CCN(C/C=C/c3ccccc3)CC2)n1 |  | 0.888
29 | O=C(c1cccc(F)c1)N1CCC(C2(c3ccccn3)NC(=O)N(CCc3cccs3)C2=O)CC1 (stereo unspecified) | 0.71 | 
30 | COc1ccc(CNC(=O)CCC2CCCN(C(=O)/C=C/c3ccccn3)C2)c(OC)c1 (stereo unspecified) | 0.802 | 
31 | CC(=O)c1ccc(C(=O)NCC2CC(Cc3ccc(F)cc3)=NO2)cc1 (stereo unspecified) | 0.747 | 
